According to PubChem BioAssay AID1347075 (National Center for Advancing Translational Sciences (NCATS), 2019):
The whole screen tested about 400,000 compounds, of which about 5,500 (1.4%) were called active. The shares of active, inactive and inconclusive entries below differ from those in the screen. The call rests on the fitted dose curve; in most records, active means well fitted cell-killing curve with a large enough effect; inconclusive means small, poorly fitted or top-dose-only effect, or effect the other way; inactive means flat fitted curve, though single readings scatter. A potency beside an inconclusive call is a rough fit, not a confirmed value.

Experiment: qHTS assay for MDR1-selective chemotherapeutics: Primary screen using the parental adenocarcinoma cell KB-3-1; further: nearly all actives have a fitted effect of over 60% in size
Settings: KB-3-1 viability, CellTiter-Glo ATP luminescence, 72 h; activity change, negative = cytotoxic: at 46.1 µM (top of the series)
Procedure, shortened: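 72 h, 37 °C compound treatment of KB-3-1 parental cells; CellTiter-Glo added, 10 min, luminescence read. Data corrected against DMSO-only plates and normalized before curve fitting.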
On the % scale 0 is the no-effect control and ±100 the full control effect; potency means the concentration at half of the fitted maximal effect.

SMILES | Potency | activity change, negative = cytotoxic
COc1ccccc1N(C)S(=O)(=O)c1ccc(C(=O)Nc2cc(OC)c(OC)c(OC)c2)cc1 | active: 16.4 µM | 
CC1(C(=O)N2CCC(CC3CC(c4cccc(Br)c4)=NO3)(C(=O)NCC3CCCCC3)CC2)CC1 (centres undefined) | inactive | 
CCOC(=O)Cn1nnnc1C(C(C)C)N(Cc1cccs1)Cc1cc2cc(C)ccc2[nH]c1=O (centres undefined) | inconclusive: 31.6 µM [cytotoxic, single point] | 
Cc1[nH]c(=S)sc1Cc1ccc(F)cc1 | inconclusive: 0.0092 µM [rising, full curve] | 
CCOC(=O)C1=C(C)Nc2nnnn2C1c1ccc(OC)c(Br)c1 (centres undefined) | inactive | 
COc1ccc(OCCC(=O)NC2CCCCC2)cc1 | inconclusive: 20.6 µM [rising, partial curve] | 
COc1ccc(CCNC(=O)CNCCc2ccc(F)cc2)cc1 | inactive | 
CN(Cc1ccccc1)C(=O)c1ccc(NC(=O)Cc2ccc(NC(=O)C3CCCN(C(=O)CCc4ccccc4)C3)cc2)cc1 (centres undefined) | inconclusive: 1.46 µM [cytotoxic, full curve] | 
CC(=O)c1cccc(-c2ccnc3c2CC(C(=O)Nc2cccc(N(C)C)c2)O3)c1 (centres undefined) | inconclusive: 29.1 µM [cytotoxic, single point] | 
CC(C)NC(=O)CCCc1cn(C)c2ccccc12 | inactive | 
CC(=O)C1(O)C(C)CC2C3CC(F)C4(O)CC(O)CCC4(C)C3CCC21C (centres undefined) | inactive | 
COc1ccc(N2C(=O)/C(=C\c3ccco3)N=C2SCC(=O)NC(C)C)cc1Cl | inactive | 
CCN(CC)c1ccc(-c2nn3c(-c4cccnc4)nnc3s2)cc1 | active: 20.6 µM | 
O=S1(=O)N[C@@H](Cc2ccccc2)COc2cc(N3CC[C@H](O)C3)ccc21 | inconclusive: 29.1 µM [cytotoxic, single point] | 
CC(C)(C)NC(=O)C(c1ccncc1)n1c(-c2ccc(C(F)(F)F)cc2)nc2ccccc21 (centres undefined) | inconclusive: 25.9 µM [cytotoxic, single point] | 
O=C1CC(c2ccsc2)c2cc3c(cc2N1)OCCO3 (centres undefined) | inconclusive: 32.6 µM [cytotoxic, single point] | 
CCOC(=O)c1ccc(NS(=O)(=O)c2ccc3c(c2)CCN3C(=O)CC)cc1 | inactive | 
CN1C2C=CC(=O)C1C1C(=O)N(c3ccccc3)C(=O)C12 (centres undefined) | inconclusive: 29.1 µM [cytotoxic, single point] | 
CS(=O)(=O)c1cc(C(=O)O)cc(NCc2ccccc2)c1Oc1ccccc1 |  | inconclusive: 35%
CC(/C=N\NC(=O)Cn1c(C)nc2ccccc21)=C\c1ccccc1 | active: 18.4 µM | 
Cc1ccnc(NS(=O)(=O)c2ccc(NC(=O)c3ccc([N+](=O)[O-])s3)cc2)n1 | active: 14.6 µM | 
CCSc1n[nH]c2nc3c(c(=O)n12)C1(CCCC1)Cc1ccccc1-3 | inactive | 
Oc1c(Cl)cc(Cl)cc1C=Nc1cc(C(F)(F)F)ccc1N1CCc2ccccc2C1 | inconclusive: 23.1 µM [cytotoxic, single point] | 
O=C(CSc1nccn1Cc1ccccc1)Nc1nc2ccccc2s1 | inactive | 
O=C(Cn1c(-c2ccccc2)noc1=O)N1CCC(Cc2ccccc2)CC1 | inconclusive: 32.6 µM [cytotoxic, single point] | 

SMILES | Potency | activity change, negative = cytotoxic
O=C(c1cc(Cl)cc(Cl)c1)N1CCC(=O)N([C@H](COCc2ccccc2)Cc2ccccc2)CC1 | inconclusive: 29.1 µM [cytotoxic, single point] | 
COc1ccc(-n2nc(C(=O)N3CCCCC3)c3c4ccccc4n(C)c3c2=O)cc1Cl | inactive | 
Cc1ccc(S(=O)(=O)c2nnn(CC(=O)Nc3ccccc3C)c2N)cc1 | active: 16.4 µM | 
CCc1ccc(NC(=O)N2CCN(Cc3nc4ccc(C)cc4o3)CC2)cc1 | inactive | 
CCN(CC)S(=O)(=O)c1cc([N+](=O)[O-])ccc1NNC(=O)Nc1ccc(Cl)c(Cl)c1 | active: 5.8 µM | 
O=C(Nc1ccc(C(=O)N2CCOCC2)cc1)c1cc(-c2cccnc2)nc2ccc(Br)cc12 | inconclusive: 29.1 µM [cytotoxic, single point] | 
O=[N+]([O-])c1cc(S(=O)(=O)NCCN2CCOCC2)ccc1Sc1nnnn1-c1ccccc1 | active: 13 µM | 
COc1ccc2[nH]c3c(=O)n(CCN4CCOCC4)cnc3c2c1 | inconclusive: 29.1 µM [rising, single point] | 
CCCCn1ccnc1C(=O)c1cccc(S(=O)(=O)N2c3ccccc3CC2C)c1 (centres undefined) | inconclusive: 11.6 µM [cytotoxic, partial curve] | 
CCCCC(=O)NC(c1ccco1)c1cc(Cl)c2cccnc2c1O (centres undefined) | inconclusive: 20.6 µM [cytotoxic, single point] | 
CC(=O)[C@H]1CC[C@H]2[C@@H]3CC=C4C[C@@H](O)CC[C@]4(C)[C@H]3CC[C@]12C | inconclusive: 11.6 µM [cytotoxic, partial curve, poor fit] | 
COc1ccc(/C=N/Nc2cc(C)nc3ccc(OC)cc23)c(OC)c1 | inconclusive: 29.1 µM [cytotoxic, single point] | 
CCCCOc1ccc(C(=O)NNC(=O)c2cnccn2)cc1OC | inconclusive: 29.1 µM [cytotoxic, single point] | 
Cc1ccc(Sc2ncccc2[N+](=O)[O-])cc1 | inactive | 
O=C(c1ccc(CNS(=O)(=O)c2ccccc2)cc1)N1CCN(Cc2ccccc2)CC1 | active: 18.4 µM | 
COc1ccccc1NC(=O)c1c(C)cc(C)nc1SCC(=O)Nc1ccc(C)cc1 | inactive | 
COc1ccc(NC(=O)Cn2nnc(C(=O)NCc3ccco3)c2N)c(OC)c1 | inconclusive: 20.6 µM [cytotoxic, single point] | 
CCCCc1c(Cc2ccccc2)ncn1CCc1ccccc1OC | active: 20.6 µM | 
c1ccc(CCSc2nccn2-c2ccccc2)cc1 | inactive | 
Cc1cccc(N(C)C(=O)c2cc3cc4ccc(C)cc4nc3o2)c1 | inconclusive: 16.4 µM [cytotoxic, single point] | 
CN(C)CCN(C(=O)C1CCCCC1)c1nc2cc3c(cc2s1)OCCO3 | inconclusive: 29.1 µM [rising, single point] | 
Cc1cc(Nc2cccc(Br)c2)n2c(nc3ccccc32)c1C#N | active: 8.2 µM | 
COc1ccc(-c2csc(NC(=S)NC(=O)/C=C/c3ccco3)n2)cc1OC | active: 7.31 µM | 
COc1ccc(C(=O)NC(=S)Nc2ccc(CN3CCOCC3)cc2)cc1OC | inactive | 
COc1ccc(-c2n(CC(=O)OC3CC(C)CCC3C(C)C)c3ccccc3[n+]2C)cc1 (centres undefined) | inconclusive: 0.82 µM [rising, full curve, poor fit] | 

By substructure, the entries above containing a Cl atom
SMILES | Potency | activity change, negative = cytotoxic
COc1ccc(N2C(=O)/C(=C\c3ccco3)N=C2SCC(=O)NC(C)C)cc1Cl | inactive | 
Oc1c(Cl)cc(Cl)cc1C=Nc1cc(C(F)(F)F)ccc1N1CCc2ccccc2C1 | inconclusive: 23.1 µM [cytotoxic, single point] | 
O=C(c1cc(Cl)cc(Cl)c1)N1CCC(=O)N([C@H](COCc2ccccc2)Cc2ccccc2)CC1 | inconclusive: 29.1 µM [cytotoxic, single point] | 
COc1ccc(-n2nc(C(=O)N3CCCCC3)c3c4ccccc4n(C)c3c2=O)cc1Cl | inactive | 
CCN(CC)S(=O)(=O)c1cc([N+](=O)[O-])ccc1NNC(=O)Nc1ccc(Cl)c(Cl)c1 | active: 5.8 µM | 
CCCCC(=O)NC(c1ccco1)c1cc(Cl)c2cccnc2c1O (centres undefined) | inconclusive: 20.6 µM [cytotoxic, single point] | 

(cont.)

SMILES | Potency | activity change, negative = cytotoxic
COc1cccc(NC(=S)N2CCC(C(=O)c3ccc(F)cc3)CC2)c1 | inactive | 
Cc1ccc(OCCSCc2nnc(NC(=O)Nc3cccc(Cl)c3)s2)cc1 | active: 5.8 µM | 
CCOC(=O)c1ccc(N(CCC2CO2)S(=O)(=O)c2ccc(C)cc2)cc1 (centres undefined) | inactive | 
CCCCCCCCN1C(=O)[C@H](CC(=O)NCC23CC4CC(CC(C4)C2)C3)C[C@@]2(C(=O)OCC)CCC=C12 | inconclusive: 25.9 µM [cytotoxic, single point] | 
COC(=O)c1sc(-c2ccccc2)cc1NC(=O)c1cccc(Cl)c1 | inactive | 
O=C1NC(=S)S/C1=C\c1cccc([N+](=O)[O-])c1 | inconclusive: 29.1 µM [cytotoxic, single point] | 
CC1CCN(CCOc2cccc(Br)c2)CC1 | inactive | 
Cc1nnc(NC(=O)CSc2ccc(-c3ccc(Cl)cc3)nn2)s1 | inconclusive: 18.4 µM [rising, partial curve] | 
CCc1nc2c(OCCOc3ccc(F)cc3)cccn2c1N(C=O)Cc1ccccc1 | inactive | 
COc1cccc(NC(=O)CN2C(=O)CC(c3ccco3)Sc3ccccc32)c1 (centres undefined) |  | inconclusive: 3.95%
CN(C)c1ccc(C(=C2C=CC(=[N+](C)C)C=C2)c2ccc(N(C)C)cc2)cc1 | active: 2.59 µM | 
CCCCc1nc(SCC(=O)N2CCCCC2)c2c(=O)n(C)c(=O)n(C)c2n1 | inconclusive: 29.1 µM [rising, single point] | 
CN(C)CCSc1nnc2sc3ccccc3n12 | inconclusive: 23.1 µM [rising, single point] | 
CC(=O)c1cccc(NC(=O)C2CCCN(S(=O)(=O)c3cccc4nonc34)C2)c1 (centres undefined) | inconclusive: 29.1 µM [rising, single point] | 
COc1cccc(CN(C)Cc2c(O)ccc3ccccc23)c1 | inconclusive: 29.1 µM [rising, single point] | 
CN(C)Cc1cc(O)c(CN(C)C)cc1O | inconclusive: 0.0052 µM [rising, full curve] | 
CC(C)(C)C1CCC(=NNC(=O)CN(c2ccccc2)S(C)(=O)=O)CC1 (centres undefined) | inactive | 
COc1ccc(S(=O)(=O)Nc2ccc3cn[nH]c3c2)cc1C | inactive | 
COC(=O)[C@@]12C[C@@H](CC(=O)NCCCCc3ccccc3)C(=O)N(Cc3ccccc3)C1=CCC(C)(C)C2 | inconclusive: 29.1 µM [cytotoxic, single point] | 
O=C(C/C(=N\NC(=O)c1ccccc1Br)C(F)(F)F)c1cccs1 | inconclusive: 16.4 µM [cytotoxic, single point] | 
CCN1CCCC1CN(Cc1cc2ccc(C)cc2[nH]c1=O)C(=S)Nc1ccccc1OC (centres undefined) | inconclusive: 25.9 µM [cytotoxic, single point] | 
O=C1CC(Cc2ccc(Cl)cc2)C(=O)N1c1ccncc1 (centres undefined) | inactive | 
CC1(C)C=Cc2cc3ccc(=O)oc3cc2O1 | inconclusive: 14.6 µM [cytotoxic, single point] | 
COc1cccc(-c2cc(C(F)(F)F)n3nc(-c4ccc(C)cc4)cc3n2)c1 |  | inconclusive: -5.57%
